In patent US8666675B2, “Computer method and system for predicting physical properties using a conceptual segment model” (Aspen Technology, Inc., priority 2004, dated 2014):

Test: Solvent characteristics (hydrophobic / polar / hydrophilic / complex)
Assay type: physicochemical
Description: […] conceptual segments were defined for nonelectrolyte molecules: a hydrophobic segment, a polar segment, a hydrophilic segment and a solvation segment. These conceptual segments qualitatively capture the phase behavior of real molecules and their corresponding segments. Real molecules in turn are used as reference molecules for the conceptual segments and available phase equilibrium data of these reference molecules are used to identify NRTL binary parameters for the conceptual segments. […] The study was focused on the 59 ICH solvents used in pharmaceutical process design. Water, triethylamine, and n-octanol were also considered.
Hydrocarbon solvents (aliphatic or aromatic), halogenated hydrocarbons, and ethers are mainly hydrophobic. Ketones, esters and amides are both hydrophobic and polar. Alcohols, glycols, and amines may have both substantial hydrophilicity and hydrophobicity. Acids are complex, with hydrophilicity, polarity, and hydrophobicity.

For `CC(=O)N(C)C` [N,N-Dimethylacetamide], the Solvent characteristics was “Polar”.
